Earlier results, collected in patent EP4310072A1, “ULTRAVIOLET ABSORBER, COMPOSITION, COSMETIC PRODUCT, AND PROCESS FOR PREPARING COSMETIC PRODUCT” (MFCI (Huanggang) Co., Ltd., priority 2021, dated 2023).
At least one structure is not confirmed: it was looked up by name or label, or the drawing left a doubt.

Details: cited from earlier work

For `CCCCCCOC(=O)c1ccccc1C(=O)c1ccc(N(CC)CC)cc1O` [DHHB, 2-(4-N,N-diethylamino-2-hydroxybenzoyl) hexyl benzoate], the oil dissolution temperature is given as ≤ 50 °C.
